Structures were worked out from names or drawings and are uncertain.
Target: XIAP-BIR3 (Homo sapiens, UniProt P98170)
Experiment: XIAP BIR3 fluorescence polarization binding assay (competition with AbuRPF-K(5-Fam)-NH2)
Conditions: read-out: KD Range; 5 nM AbuRPF-K(5-Fam)-NH2, 40 nM XIAP-BIR3, pH 7.5; Kd calculated from measured IC50
Protocol: Binding constants (Kd) were measured using fluorescence polarization as described by Zaneta Nikolovska-Coleska, Renxiao Wang, Xueliang Fang, Hongguang Pan, York Tomita, Peng Li, Peter P. Roller, Krzysztof Krajewski, Naoyuki Saito, Jeanne Stuckey and Shaomeng Wang, in “Development and Optimization of a Binding Assay for the XIAP BIR3 Domain Using Fluorescence Polarization”, Analytical Biochemistry 2004, 332, 261-273). Briefly, test IAP binding compounds at various concentrations for binding measurements were mixed with 5 nM fluorescently labeled peptide (AbuRPF-K(5-Fam)-NH2) and 40 nM of XIAP-BIR3 for 15 minutes at room temperature in 100 μL of 0.1M Potassium Phosphate buffer, pH 7.5 containing 100 μg/ml bovine γ-globulin. Following incubation, the polarization values (mP) were measured on a Victor^2V using a 485 nm excitation filter and a 520 nm emission filter. IC50 values were determined from the plot using nonlinear least-squares analysis using GraphPad Prism. The Kd values of competitive inhibitors were calculated using the equation described by Zaneta Nikolovska-Coleska et al. based upon the measured IC50 values, the Kd value of the probe and XIAP BIR3 complex, and the concentrations of the protein and probe in the competition assay. In various examples of IAP binding or IAP binding cargo molecules ranges for Kd values: Group A: Kd<0.1 μM; Group B: Kd=0.1-1 μM; Group C: Kd=1-10 μM; Group D: Kd>10 μM.

Sequences of proteins named here, by UniProt entry; tags and fusion partners are left off. Residues count along the entry.
UniProt P98170, 241-356 limits assumed: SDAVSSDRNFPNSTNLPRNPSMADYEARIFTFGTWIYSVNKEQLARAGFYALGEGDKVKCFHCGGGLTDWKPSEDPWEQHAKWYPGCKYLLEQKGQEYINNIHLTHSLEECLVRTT

Compound | Kd
CC(C)[C@H](NC(=O)[C@H](C)N)C(=O)N1C[C@@H](Oc2ccccc2)C[C@H]1/C=C/COc1ccc2c(c1)CCCC2 | 1000 to 10000 nM
CC(C)[C@H](NC(=O)CN)C(=O)N1CCC[C@H]1CCCOc1ccccc1-c1ccccc1 | > 10000 nM
CN[C@@H](C)C(=O)N[C@H](C(=O)N1CCC[C@H]1Cc1cn(CCOCCOCCOC)c2cc(F)ccc12)C(C)(C)C | 100 to 1000 nM
C[C@H](N)C(=O)N[C@H](C(=O)N1C[C@@H](Oc2ccccc2)C[C@H]1Cc1coc2ccccc12)C1CCCCC1 | < 100 nM

Second part, the molecule after the results:

Kd | Compound
< 100 nM | Cc1ccc2occ(C[C@@H]3CCCN3C(=O)[C@@H](NC(=O)[C@H](C)N)C(C)C)c2c1
< 100 nM | CN[C@@H](C)C(=O)N[C@H](C(=O)N1CCC[C@H]1Cc1coc2ccccc12)C1CCCCC1
< 100 nM | CC(C)[C@H](NC(=O)[C@H](C)N)C(=O)N1CCC[C@H]1Cc1c(-c2ccccn2)oc2ccccc12
100 to 1000 nM | COc1ccc(-c2oc3ccccc3c2C[C@@H]2CCCN2C(=O)[C@@H](NC(=O)[C@H](C)N)C(C)C)cn1

Test system: SK-OV-3 cells
Experiment: MTT cell growth/survival assay
Conditions: read-out: EC50, μM (±sd), 72 hrs incubation, drug concentration that results in 50% cell survival
Protocol: The MTT assay is an example of an assay that has been used for measuring cell growth as previously described (Hansen, M. B., Nielsen, S. E., and Berg, K. J. Immunol. Methods 1989, 119, 203-210) and incorporated herein by reference in its entirety. Briefly, SK-OV-3 cells were seeded in 96-well plates in McCoy's medium containing 10% fetal bovine serum […] (20,000 per well) and incubated overnight at 37° C. Next day, test compounds were added at various concentrations typically from about 10 to about 0.0001 μM and the plates were incubated at 37° C. for an additional 72 hrs. This incubation time was optimal for measuring inhibitory effects of different analogs. 50 microliters of 5 mg/mL MTT reagent to each well was added and the plates were incubated at 37° C. for 3 hours. At the end of incubation period, 50 microliters of DMSO was added to each well to dissolve cells and the optical density (OD) of the wells was measured with a microplate reader (Victor^2 1420, Wallac, Finland) at 535 nm. Cell survival (CS) was calculated by the following equation: CS=(OD treated well/mean OD control wells)×100%
The EC50, defined as the drug concentration that results in 50% CS, was derived by calculating the point where the dose-response curve crosses the 50% CS point using GraphPad Prism.

Compound | EC50
CN[C@@H](C)C(=O)N[C@H](C(=O)N1CCC[C@H]1Cc1cn(CCOCCOCCOC)c2cc(F)ccc12)C(C)(C)C | 0.092 µM

— patent publication US9840464B2, “IAP binding compounds” (TetraLogic Birinapant UK Ltd., priority 2004, dated 2017)
